Experimental data published in the supplement of paper PMC11546906.
Counter-ions that a name gives are not always drawn. This is one part of the list. Single values are uncertain here, since repeats match poorly.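 FDA-approved drugs were each paired with colistin at one-eighth its MIC and screened against a multidrug-resistant, mcr-1-positive clinical E. coli isolate, with OD600 read after 24 h. Drug-free bacteria served as growth control, plain broth as blank. Combinations were active if OD600 dropped below 0.2.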

System: Escherichia coli 42 (mcr-1-positive clinical isolate)
Test: OD600 after 24 h growth with compound plus colistin (absorbance units (OD600)); higher = more bacterial growth (less inhibition)
Details: first compound 25 µM; colistin concentration 0.5 ug/mL; incubation time 24 h; 37 °C

OD600, inactive:
CC1(C)OC(=O)NC1=O [5,5-Dimethyloxazolidine-2,4-dione] + CCC(C)CCCC(=O)N[C@@H](CCN)C(=O)N[C@H](C(=O)N[C@@H](CCN)C(=O)N[C@H]1CCNC(=O)[C@H]([C@@H](C)O)NC(=O)[C@H](CCN)NC(=O)[C@H](CCN)NC(=O)[C@H](CC(C)C)NC(=O)[C@@H](CC(C)C)NC(=O)[C@H](CCN)NC1=O)[C@@H](C)O [colistin] 1.1
CCc1ccc(CCOc2ccc(CC3SC(=O)NC3=O)cc2)nc1 (stereo not given) [Pioglitazone hydrochloride] + CCC(C)CCCC(=O)N[C@@H](CCN)C(=O)N[C@H](C(=O)N[C@@H](CCN)C(=O)N[C@H]1CCNC(=O)[C@H]([C@@H](C)O)NC(=O)[C@H](CCN)NC(=O)[C@H](CCN)NC(=O)[C@H](CC(C)C)NC(=O)[C@@H](CC(C)C)NC(=O)[C@H](CCN)NC1=O)[C@@H](C)O [colistin] 0.997
Cc1cn[nH]c1 [Fomepizole] + CCC(C)CCCC(=O)N[C@@H](CCN)C(=O)N[C@H](C(=O)N[C@@H](CCN)C(=O)N[C@H]1CCNC(=O)[C@H]([C@@H](C)O)NC(=O)[C@H](CCN)NC(=O)[C@H](CCN)NC(=O)[C@H](CC(C)C)NC(=O)[C@@H](CC(C)C)NC(=O)[C@H](CCN)NC1=O)[C@@H](C)O [colistin] 1.09
Cc1ncc([N+](=O)[O-])n1CCO [Metronidazole] + CCC(C)CCCC(=O)N[C@@H](CCN)C(=O)N[C@H](C(=O)N[C@@H](CCN)C(=O)N[C@H]1CCNC(=O)[C@H]([C@@H](C)O)NC(=O)[C@H](CCN)NC(=O)[C@H](CCN)NC(=O)[C@H](CC(C)C)NC(=O)[C@@H](CC(C)C)NC(=O)[C@H](CCN)NC1=O)[C@@H](C)O [colistin] 0.855
NC(N)=O + CCC(C)CCCC(=O)N[C@@H](CCN)C(=O)N[C@H](C(=O)N[C@@H](CCN)C(=O)N[C@H]1CCNC(=O)[C@H]([C@@H](C)O)NC(=O)[C@H](CCN)NC(=O)[C@H](CCN)NC(=O)[C@H](CC(C)C)NC(=O)[C@@H](CC(C)C)NC(=O)[C@H](CCN)NC1=O)[C@@H](C)O [colistin] 0.961
CCCN1CCCC[C@H]1C(=O)Nc1c(C)cccc1C [Ropivacaine] + CCC(C)CCCC(=O)N[C@@H](CCN)C(=O)N[C@H](C(=O)N[C@@H](CCN)C(=O)N[C@H]1CCNC(=O)[C@H]([C@@H](C)O)NC(=O)[C@H](CCN)NC(=O)[C@H](CCN)NC(=O)[C@H](CC(C)C)NC(=O)[C@@H](CC(C)C)NC(=O)[C@H](CCN)NC1=O)[C@@H](C)O [colistin] 1.24
C[C@H]1[C@H](OC(=O)CCC(=O)O)O[C@@H]2O[C@@]3(C)CC[C@H]4[C@H](C)CC[C@@H]1[C@@]24OO3 [Artesunate] + CCC(C)CCCC(=O)N[C@@H](CCN)C(=O)N[C@H](C(=O)N[C@@H](CCN)C(=O)N[C@H]1CCNC(=O)[C@H]([C@@H](C)O)NC(=O)[C@H](CCN)NC(=O)[C@H](CCN)NC(=O)[C@H](CC(C)C)NC(=O)[C@@H](CC(C)C)NC(=O)[C@H](CCN)NC1=O)[C@@H](C)O [colistin] 0.575
Nc1ccc(S(=O)(=O)c2ccc(N)cc2)cc1 [Dapsone] + CCC(C)CCCC(=O)N[C@@H](CCN)C(=O)N[C@H](C(=O)N[C@@H](CCN)C(=O)N[C@H]1CCNC(=O)[C@H]([C@@H](C)O)NC(=O)[C@H](CCN)NC(=O)[C@H](CCN)NC(=O)[C@H](CC(C)C)NC(=O)[C@@H](CC(C)C)NC(=O)[C@H](CCN)NC1=O)[C@@H](C)O [colistin] 0.906
COc1cc2c(cc1Cc1cccc(Cl)c1F)c(=O)c(C(=O)O)cn2[C@H](CO)C(C)C [Elvitegravir] + CCC(C)CCCC(=O)N[C@@H](CCN)C(=O)N[C@H](C(=O)N[C@@H](CCN)C(=O)N[C@H]1CCNC(=O)[C@H]([C@@H](C)O)NC(=O)[C@H](CCN)NC(=O)[C@H](CCN)NC(=O)[C@H](CC(C)C)NC(=O)[C@@H](CC(C)C)NC(=O)[C@H](CCN)NC1=O)[C@@H](C)O [colistin] 0.87
CC(=O)[C@H]1CC[C@H]2[C@@H]3CCC4=CC(=O)CC[C@]4(C)[C@H]3CC[C@]12C [Progesterone] + CCC(C)CCCC(=O)N[C@@H](CCN)C(=O)N[C@H](C(=O)N[C@@H](CCN)C(=O)N[C@H]1CCNC(=O)[C@H]([C@@H](C)O)NC(=O)[C@H](CCN)NC(=O)[C@H](CCN)NC(=O)[C@H](CC(C)C)NC(=O)[C@@H](CC(C)C)NC(=O)[C@H](CCN)NC1=O)[C@@H](C)O [colistin] 0.892

As a short view, some entries already given.
OD600, inactive:
COc1cc2c(cc1Cc1cccc(Cl)c1F)c(=O)c(C(=O)O)cn2[C@H](CO)C(C)C [Elvitegravir] + CCC(C)CCCC(=O)N[C@@H](CCN)C(=O)N[C@H](C(=O)N[C@@H](CCN)C(=O)N[C@H]1CCNC(=O)[C@H]([C@@H](C)O)NC(=O)[C@H](CCN)NC(=O)[C@H](CCN)NC(=O)[C@H](CC(C)C)NC(=O)[C@@H](CC(C)C)NC(=O)[C@H](CCN)NC1=O)[C@@H](C)O [colistin] 0.87
CC(=O)[C@H]1CC[C@H]2[C@@H]3CCC4=CC(=O)CC[C@]4(C)[C@H]3CC[C@]12C [Progesterone] + CCC(C)CCCC(=O)N[C@@H](CCN)C(=O)N[C@H](C(=O)N[C@@H](CCN)C(=O)N[C@H]1CCNC(=O)[C@H]([C@@H](C)O)NC(=O)[C@H](CCN)NC(=O)[C@H](CCN)NC(=O)[C@H](CC(C)C)NC(=O)[C@@H](CC(C)C)NC(=O)[C@H](CCN)NC1=O)[C@@H](C)O [colistin] 0.892
